The target of test [1] is Mycobacterium tuberculosis ClpP2 with a C-terminal (His)6 tag (Mycobacterium tuberculosis) (UniProt P9WPC3). As to the kind of experiment: pull-down.
Test [2] concerns the target Mycobacterium tuberculosis ClpP1 with a C-terminal (His)6 tag (Mycobacterium tuberculosis) (UniProt P9WPC5). As to the kind of experiment: pull-down.

The chains behind the UniProt entries cited, without tags or fusion partners. Residues count along the entry.
UniProt P9WPC3: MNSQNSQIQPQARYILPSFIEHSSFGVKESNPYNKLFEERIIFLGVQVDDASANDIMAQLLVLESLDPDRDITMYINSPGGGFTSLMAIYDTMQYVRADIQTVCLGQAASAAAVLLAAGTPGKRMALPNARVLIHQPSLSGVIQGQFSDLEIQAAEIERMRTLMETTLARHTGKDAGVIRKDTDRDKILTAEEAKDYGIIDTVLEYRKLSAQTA
UniProt P9WPC5: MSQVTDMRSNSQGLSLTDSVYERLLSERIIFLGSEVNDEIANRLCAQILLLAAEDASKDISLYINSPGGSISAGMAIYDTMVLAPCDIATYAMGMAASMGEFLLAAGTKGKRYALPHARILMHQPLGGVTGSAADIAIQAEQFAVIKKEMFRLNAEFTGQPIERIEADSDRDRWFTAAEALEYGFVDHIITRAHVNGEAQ
UniProt P0A6G7, residues 15-207: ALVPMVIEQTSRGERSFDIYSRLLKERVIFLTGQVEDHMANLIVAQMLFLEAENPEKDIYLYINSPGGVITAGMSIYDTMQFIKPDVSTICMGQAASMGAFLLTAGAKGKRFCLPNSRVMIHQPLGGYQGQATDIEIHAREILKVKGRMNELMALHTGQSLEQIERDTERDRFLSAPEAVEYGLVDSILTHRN

No constants are given. Whether binding was seen depends on the method and setting. In cells and extracts the contact can be indirect. Some results given as binding are weak or reduced against the parent protein; the word gives no strength.

With “untagged E. coli ClpP (recombinant, co-produced with MTB ClpP1(His)6 or ClpP2(His)6) (from UniProt P0A6G7 15-207) (enzyme)”, the binding result in test [1] and in test [2] was “binds” throughout.
As for “endogenous E. coli ClpP of BL21(DE3) cells (from UniProt P0A6G7 15-207) (enzyme)”, the binding entry in test [1] and in test [2] was “binds” throughout.

Values taken from paper PMC3258218.
